# According to the supplement of paper PMC11438910:
# The list shows a part of the results. The signal is at background level for most entries.
# B1: 4-127.2 (protein)
# chain 1: QVQLQESGPGLVKPSETLSLTCAVSGYSVNSGHGWTWIRQSPGKGLEWIGYIGGGSGSSNYNPSLKSRVTISKDTSNNQLSLKLRSLTTADTAMYYCARRVPADRSGNDYWGQGVLVTVSS
# chain 2: QSVLTQPPSVSGDPGQRVTISCTGSSSNIGDYYGYWYQQFPGTAPKLLIFDDNNRPSGISDRFSGSKAGTSASLTITGLQPGDEADYYCGAWDGSLNAHVFGSGTKLTVL
# Key:
# Assay in all cases: fluorescence intensity of antibody binding to polysaccharide-coupled beads; higher = stronger binding
# [1] = biological target: pneumococcal polysaccharide Pn25A
# [2] = biological target: pneumococcal polysaccharide Pn25F
# [3] = biological target: pneumococcal polysaccharide Pn27
# [4] = biological target: pneumococcal polysaccharide Pn28A
# [5] = biological target: pneumococcal polysaccharide Pn28F
# [6] = biological target: pneumococcal polysaccharide Pn29
# [7] = biological target: pneumococcal polysaccharide Pn3
# [8] = biological target: pneumococcal polysaccharide Pn31
# [9] = biological target: pneumococcal polysaccharide Pn32A
# [10] = biological target: pneumococcal polysaccharide Pn32F
# [11] = biological target: pneumococcal polysaccharide Pn33A
# [12] = biological target: pneumococcal polysaccharide Pn33B
# [13] = biological target: pneumococcal polysaccharide Pn33C
# [14] = biological target: pneumococcal polysaccharide Pn33D
# [15] = biological target: pneumococcal polysaccharide Pn33F
# [16] = biological target: pneumococcal polysaccharide Pn34
# [17] = biological target: pneumococcal polysaccharide Pn35A
# [18] = biological target: pneumococcal polysaccharide Pn35B
# [19] = biological target: pneumococcal polysaccharide Pn35C
# [20] = biological target: pneumococcal polysaccharide Pn35F
# [21] = biological target: pneumococcal polysaccharide Pn36
# [22] = biological target: pneumococcal polysaccharide Pn37
# [23] = biological target: pneumococcal polysaccharide Pn38
# [24] = antibody concentration 0.1 ng/mL
# [25] = antibody concentration 0.534724 ng/mL
# [26] = antibody concentration 2.8593 ng/mL
# [27] = antibody concentration 15.2894 ng/mL
# [28] = antibody concentration 81.7561 ng/mL
# [29] = antibody concentration 437.17 ng/mL
# [30] = antibody concentration 2337.65 ng/mL
# [31] = antibody concentration 12500 ng/mL
binder,measurement,setting,value
B1,fluorescence intensity,[1]; [24],23 MFI
same,fluorescence intensity,[1]; [25],23 MFI
same,fluorescence intensity,[1]; [26],22.8 MFI
same,fluorescence intensity,[1]; [27],23.5 MFI
same,fluorescence intensity,[1]; [28],23.5 MFI
same,fluorescence intensity,[1]; [29],27 MFI
same,fluorescence intensity,[1]; [30],28.5 MFI
same,fluorescence intensity,[1]; [31],32 MFI
same,fluorescence intensity,[2]; [24],30 MFI
same,fluorescence intensity,[2]; [25],31.5 MFI
same,fluorescence intensity,[2]; [26],29 MFI
same,fluorescence intensity,[2]; [27],29.5 MFI
same,fluorescence intensity,[2]; [28],30 MFI
same,fluorescence intensity,[2]; [29],30 MFI
same,fluorescence intensity,[2]; [30],31.5 MFI
same,fluorescence intensity,[2]; [31],45.5 MFI
same,fluorescence intensity,[3]; [24],16.5 MFI
same,fluorescence intensity,[3]; [25],15.5 MFI
same,fluorescence intensity,[3]; [26],16 MFI
same,fluorescence intensity,[3]; [27],15.5 MFI
same,fluorescence intensity,[3]; [28],18 MFI
same,fluorescence intensity,[3]; [29],22 MFI
same,fluorescence intensity,[3]; [30],38.8 MFI
same,fluorescence intensity,[3]; [31],187 MFI
same,fluorescence intensity,[4]; [24],27 MFI
same,fluorescence intensity,[4]; [25],26 MFI
same,fluorescence intensity,[4]; [26],24.5 MFI
same,fluorescence intensity,[4]; [27],26.8 MFI
same,fluorescence intensity,[4]; [28],25.8 MFI
same,fluorescence intensity,[4]; [29],30 MFI
same,fluorescence intensity,[4]; [30],27.8 MFI
same,fluorescence intensity,[4]; [31],33.5 MFI
same,fluorescence intensity,[5]; [24],27.8 MFI
same,fluorescence intensity,[5]; [25],29 MFI
same,fluorescence intensity,[5]; [26],27.8 MFI
same,fluorescence intensity,[5]; [27],27.5 MFI
same,fluorescence intensity,[5]; [28],29 MFI
same,fluorescence intensity,[5]; [29],30.8 MFI
same,fluorescence intensity,[5]; [30],33.2 MFI
same,fluorescence intensity,[5]; [31],94 MFI
same,fluorescence intensity,[6]; [24],16 MFI
same,fluorescence intensity,[6]; [25],16 MFI
same,fluorescence intensity,[6]; [26],15.5 MFI
same,fluorescence intensity,[6]; [27],15.5 MFI
same,fluorescence intensity,[6]; [28],14.5 MFI
same,fluorescence intensity,[6]; [29],19 MFI
same,fluorescence intensity,[6]; [30],26 MFI
same,fluorescence intensity,[6]; [31],119 MFI
same,fluorescence intensity,[7]; [24],16 MFI
same,fluorescence intensity,[7]; [25],28.5 MFI
same,fluorescence intensity,[7]; [26],71 MFI
same,fluorescence intensity,[7]; [27],312 MFI
same,fluorescence intensity,[7]; [28],1440 MFI
same,fluorescence intensity,[7]; [29],4680 MFI
same,fluorescence intensity,[7]; [30],6570 MFI
same,fluorescence intensity,[7]; [31],7280 MFI
same,fluorescence intensity,[8]; [24],13 MFI
same,fluorescence intensity,[8]; [25],13.5 MFI
same,fluorescence intensity,[8]; [26],13.5 MFI
same,fluorescence intensity,[8]; [27],13.5 MFI
same,fluorescence intensity,[8]; [28],13.5 MFI
same,fluorescence intensity,[8]; [29],16.8 MFI
same,fluorescence intensity,[8]; [30],23.8 MFI
same,fluorescence intensity,[8]; [31],129 MFI
same,fluorescence intensity,[9]; [24],17.5 MFI
same,fluorescence intensity,[9]; [25],18 MFI
same,fluorescence intensity,[9]; [26],16.8 MFI
same,fluorescence intensity,[9]; [27],16.5 MFI
same,fluorescence intensity,[9]; [28],17.2 MFI
same,fluorescence intensity,[9]; [29],21.2 MFI
same,fluorescence intensity,[9]; [30],22.5 MFI
same,fluorescence intensity,[9]; [31],44 MFI
same,fluorescence intensity,[10]; [24],28 MFI
same,fluorescence intensity,[10]; [25],24.8 MFI
same,fluorescence intensity,[10]; [26],26.5 MFI
same,fluorescence intensity,[10]; [27],26.5 MFI
same,fluorescence intensity,[10]; [28],28 MFI
same,fluorescence intensity,[10]; [29],34.5 MFI
same,fluorescence intensity,[10]; [30],40 MFI
same,fluorescence intensity,[10]; [31],52 MFI
same,fluorescence intensity,[11]; [24],17.2 MFI
same,fluorescence intensity,[11]; [25],18 MFI
same,fluorescence intensity,[11]; [26],17.5 MFI
same,fluorescence intensity,[11]; [27],18 MFI
same,fluorescence intensity,[11]; [28],17.5 MFI
same,fluorescence intensity,[11]; [29],20 MFI
same,fluorescence intensity,[11]; [30],69.5 MFI
same,fluorescence intensity,[11]; [31],746 MFI
same,fluorescence intensity,[12]; [24],18 MFI
same,fluorescence intensity,[12]; [25],17 MFI
same,fluorescence intensity,[12]; [26],16.5 MFI
same,fluorescence intensity,[12]; [27],17 MFI
same,fluorescence intensity,[12]; [28],18 MFI
same,fluorescence intensity,[12]; [29],19 MFI
same,fluorescence intensity,[12]; [30],19 MFI
same,fluorescence intensity,[12]; [31],24 MFI
same,fluorescence intensity,[13]; [24],19.5 MFI
same,fluorescence intensity,[13]; [25],17.5 MFI
same,fluorescence intensity,[13]; [26],17.8 MFI
same,fluorescence intensity,[13]; [27],19 MFI
same,fluorescence intensity,[13]; [28],18.5 MFI
same,fluorescence intensity,[13]; [29],17.5 MFI
same,fluorescence intensity,[13]; [30],21.2 MFI
same,fluorescence intensity,[13]; [31],73.8 MFI
same,fluorescence intensity,[14]; [24],15 MFI
same,fluorescence intensity,[14]; [25],16 MFI
same,fluorescence intensity,[14]; [26],16.5 MFI
same,fluorescence intensity,[14]; [27],14.8 MFI
same,fluorescence intensity,[14]; [28],16 MFI
same,fluorescence intensity,[14]; [29],17 MFI
same,fluorescence intensity,[14]; [30],17.5 MFI
same,fluorescence intensity,[14]; [31],33 MFI
same,fluorescence intensity,[15]; [24],12.2 MFI
same,fluorescence intensity,[15]; [25],12.5 MFI
same,fluorescence intensity,[15]; [26],13 MFI
same,fluorescence intensity,[15]; [27],12.5 MFI
same,fluorescence intensity,[15]; [28],13 MFI
same,fluorescence intensity,[15]; [29],17.5 MFI
same,fluorescence intensity,[15]; [30],39.8 MFI
same,fluorescence intensity,[15]; [31],278 MFI
same,fluorescence intensity,[16]; [24],13.5 MFI
same,fluorescence intensity,[16]; [25],13 MFI
same,fluorescence intensity,[16]; [26],12.2 MFI
same,fluorescence intensity,[16]; [27],13.8 MFI
same,fluorescence intensity,[16]; [28],13 MFI
same,fluorescence intensity,[16]; [29],14.5 MFI
same,fluorescence intensity,[16]; [30],14.5 MFI
same,fluorescence intensity,[16]; [31],21.2 MFI
same,fluorescence intensity,[17]; [24],16.5 MFI
same,fluorescence intensity,[17]; [25],15.5 MFI
same,fluorescence intensity,[17]; [26],16.5 MFI
same,fluorescence intensity,[17]; [27],16 MFI
same,fluorescence intensity,[17]; [28],16 MFI
same,fluorescence intensity,[17]; [29],17 MFI
same,fluorescence intensity,[17]; [30],24.2 MFI
same,fluorescence intensity,[17]; [31],126 MFI
same,fluorescence intensity,[18]; [24],17 MFI
same,fluorescence intensity,[18]; [25],17 MFI
same,fluorescence intensity,[18]; [26],19 MFI
same,fluorescence intensity,[18]; [27],17.5 MFI
same,fluorescence intensity,[18]; [28],18.5 MFI
same,fluorescence intensity,[18]; [29],19.5 MFI
same,fluorescence intensity,[18]; [30],22 MFI
same,fluorescence intensity,[18]; [31],83.8 MFI
same,fluorescence intensity,[19]; [24],19.5 MFI
same,fluorescence intensity,[19]; [25],18.5 MFI
same,fluorescence intensity,[19]; [26],19.5 MFI
same,fluorescence intensity,[19]; [27],19 MFI
same,fluorescence intensity,[19]; [28],20 MFI
same,fluorescence intensity,[19]; [29],20.5 MFI
same,fluorescence intensity,[19]; [30],20.5 MFI
same,fluorescence intensity,[19]; [31],26 MFI
same,fluorescence intensity,[20]; [24],18 MFI
same,fluorescence intensity,[20]; [25],19 MFI
same,fluorescence intensity,[20]; [26],19.5 MFI
same,fluorescence intensity,[20]; [27],18 MFI
same,fluorescence intensity,[20]; [28],18.5 MFI
same,fluorescence intensity,[20]; [29],18.5 MFI
same,fluorescence intensity,[20]; [30],22.5 MFI
same,fluorescence intensity,[20]; [31],27.2 MFI
same,fluorescence intensity,[21]; [24],14.5 MFI
same,fluorescence intensity,[21]; [25],14.8 MFI
same,fluorescence intensity,[21]; [26],15 MFI
same,fluorescence intensity,[21]; [27],14.5 MFI
same,fluorescence intensity,[21]; [28],13.5 MFI
same,fluorescence intensity,[21]; [29],17 MFI
same,fluorescence intensity,[21]; [30],23 MFI
same,fluorescence intensity,[21]; [31],108 MFI
same,fluorescence intensity,[22]; [24],23.8 MFI
same,fluorescence intensity,[22]; [25],25 MFI
same,fluorescence intensity,[22]; [26],24.5 MFI
same,fluorescence intensity,[22]; [27],25.5 MFI
same,fluorescence intensity,[22]; [28],25 MFI
same,fluorescence intensity,[22]; [29],32 MFI
same,fluorescence intensity,[22]; [30],78.5 MFI
same,fluorescence intensity,[22]; [31],397 MFI
same,fluorescence intensity,[23]; [24],26.5 MFI
same,fluorescence intensity,[23]; [25],25 MFI
same,fluorescence intensity,[23]; [26],26.5 MFI
same,fluorescence intensity,[23]; [27],24.2 MFI

# Pulled one by one from the list above (four):
binder,measurement,setting,value
B1,fluorescence intensity,[17]; [24],16.5 MFI
same,fluorescence intensity,[10]; [31],52 MFI
same,fluorescence intensity,[3]; [28],18 MFI
same,fluorescence intensity,[5]; [27],27.5 MFI

# Part of the list above, as tab-separated lines.
binder	measurement	setting	value
B1	fluorescence intensity	[16]; [24]	13.5 MFI
same	fluorescence intensity	[16]; [25]	13 MFI
same	fluorescence intensity	[16]; [26]	12.2 MFI

# 4 entries from above, reformatted.
binder	measurement	setting	value
B1	fluorescence intensity	[1]; [25]	23 MFI
same	fluorescence intensity	[1]; [26]	22.8 MFI
same	fluorescence intensity	[1]; [27]	23.5 MFI
same	fluorescence intensity	[1]; [28]	23.5 MFI
